Results are given in words; binding and its absence hold for the method and conditions named. Some entries that bind do so weakly or less than the wild type.

Data on one molecule can be found in patent US20160346402A1.

The experiment has as its target TPP-2618, TweakR-ECD-34-68-hIgGFc-His-R56A (human). The experiment in a line: ELISA: IgG coated at 1 µg/ml; 8-fold diluted HEK293 supernatant with the TWEAKR(34-68)-Fc-His mutein added; anti-HIS-HRP, Amplex Red; signal [Rfu]. (In general: In an ELISA, binding on a coated surface is turned into a signal by an enzyme label.)

B1: TPP-2090 (antibody, human IgG1, kappa, V domains shown)
VH: EVQLLESGGGLVQPGGSLRLSCAASGFTFSPYPMIWVRQAPGKGLEWVSYISPSGGSTHYADSVKGRFTISRDNSKNTLYLQMNSLRAEDTAVYYCARGGDTYFDYFDYWGQGTLVTVSS
VL: DIQMTQSPSSLSASVGDRVTITCRASQSISGYLNWYQQKPGKAPKLLIYQASSLQSGVPSRFSGSGSGTDFTLTISSLQPEDFATYYCQQSYTSPFITFGQGTKVEIKR
B1: the binding entry is listed as “binds”.
